Reference: patent US20240350522A1, “HYGROMYCIN A FOR TREATMENT OF DISEASES AND INFECTIONS” (FLIGHTPATH BIOSCIENCES, INC., priority 2021, published 2024)
Several values for one entry are separate records, joined by “and”; a condition that tells them apart may be missing. Equal entries are not always repeated. This continues a long series; more values of the same kind are listed elsewhere.

What was measured:
[1] = test system: Treponema pallidum pallidum SS14 strain; experiment: T. pallidum susceptibility assay, co-culture with Sf1Ep cells, tp0574 (T47) qPCR after 7 days; assay type: cell-based; settings: replicate wells
[2] = test system: Treponema pallidum pallidum Chicago strain; experiment: Treated treponemes seeded onto no-antibiotic plate, 7 more days, T47 qPCR (treponemicidal activity); assay type: cell-based; settings: seeded on no antibiotic plate, replicate wells

SMILES: CC(=O)[C@H]1O[C@@H](Oc2ccc(/C=C(\C)C(=O)N[C@@H]3[C@H](O)[C@@H](O)[C@H]4OCO[C@H]4[C@@H]3O)cc2O)[C@@H](O)[C@@H]1O [Hyg A, Hygromycin A]
- Mean T47 copies/μL, experimental values ([1]; Hyg A 0.03 μg/ml): 1524 copies/μL and 2877 copies/μL and 2662 copies/μL and 2752 copies/μL and 3084 copies/μL and 3282 copies/μL and 3342 copies/μL and 2625 copies/μL
- Mean T47 copies/μL, experimental values ([1]; Hyg A 0.06 μg/ml): 984 copies/μL and 888 copies/μL and 837 copies/μL and 911 copies/μL
- Mean T47 copies/μL, experimental values ([1]; Hyg A 1.92 μg/ml): 358 copies/μL and 405 copies/μL and 363 copies/μL and 328 copies/μL and 285 copies/μL and 387 copies/μL and 294 copies/μL and 166 copies/μL
- Mean T47 copies/μL, experimental values ([1]; Hyg A 3.84 μg/ml): 164 copies/μL and 228 copies/μL and 360 copies/μL and 281 copies/μL and 409 copies/μL and 264 copies/μL and 310 copies/μL and 185 copies/μL
- Mean T47 copies/μL, Expt. values ([2]; pre-treated with Hygromycin A 0.03 μg/ml): 5586 copies/μL and 14839 copies/μL and 19191 copies/μL and 17902 copies/μL
- Mean T47 copies/μL, Expt. values ([2]; pre-treated with Hygromycin A 0.06 μg/ml): 50 copies/μL and 908 copies/μL and 1184 copies/μL and 1573 copies/μL
- Mean T47 copies/μL, Expt. values ([2]; pre-treated with Hygromycin A 0.12 μg/ml): 9 copies/μL and 48 copies/μL and 35 copies/μL and 42 copies/μL
- Mean T47 copies/μL, Expt. values ([2]; pre-treated with Hygromycin A 0.24 μg/ml): 37 copies/μL and 13 copies/μL and 27 copies/μL and 48 copies/μL
- Mean T47 copies/μL, Expt. values ([2]; pre-treated with Hygromycin A 0.48 μg/ml): 43 copies/μL and 37 copies/μL
- Mean T47 copies/μL, Expt. values ([2]; pre-treated with Hygromycin A 0.96 μg/ml): 13 copies/μL and 18 copies/μL and 60 copies/μL
- Mean T47 copies/μL, Expt. values ([2]; pre-treated with Hygromycin A 1.92 μg/ml): 13 copies/μL (2×) and 31 copies/μL
- Mean T47 copies/μL, Expt. values ([2]; pre-treated with Hygromycin A 3.84 μg/ml): 18 copies/μL and 23 copies/μL and 30 copies/μL
